From US20080027145A1, “Therapeutic Molecules and Methods for Generating and/or Selecting Same” (priority 2004, published 2008)
These are yes or no findings as the source states them, for the method shown. In cells and extracts the contact can be indirect. Some entries that bind do so weakly or less than the wild type.

Protein sequences, listed by entry. Tags and fused reporters are not part of them. Lines headed by an entry give the natural chain unless they say otherwise; changes in a name come on top. Chains listed by the source or under a name are the forms on record and can include a tag or linker.
FLAG-tagged human Bcl-xL (full-length) (Q07817, form named): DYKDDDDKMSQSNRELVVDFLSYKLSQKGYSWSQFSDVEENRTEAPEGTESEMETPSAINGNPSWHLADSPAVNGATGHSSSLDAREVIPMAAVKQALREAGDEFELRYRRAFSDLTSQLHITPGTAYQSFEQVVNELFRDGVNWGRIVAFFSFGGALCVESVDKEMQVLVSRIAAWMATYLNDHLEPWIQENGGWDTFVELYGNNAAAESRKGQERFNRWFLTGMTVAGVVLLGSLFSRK
FLAG-tagged human Bcl-2 (full-length) (P10415, form named): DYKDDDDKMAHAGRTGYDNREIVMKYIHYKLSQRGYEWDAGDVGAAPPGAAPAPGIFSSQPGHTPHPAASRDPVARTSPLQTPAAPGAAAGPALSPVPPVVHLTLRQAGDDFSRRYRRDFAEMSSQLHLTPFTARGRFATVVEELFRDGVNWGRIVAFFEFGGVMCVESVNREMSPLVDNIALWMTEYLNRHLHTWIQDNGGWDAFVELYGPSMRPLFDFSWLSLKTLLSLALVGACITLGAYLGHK
FLAG-tagged mouse Mcl-1 (full-length) (P97287, form named): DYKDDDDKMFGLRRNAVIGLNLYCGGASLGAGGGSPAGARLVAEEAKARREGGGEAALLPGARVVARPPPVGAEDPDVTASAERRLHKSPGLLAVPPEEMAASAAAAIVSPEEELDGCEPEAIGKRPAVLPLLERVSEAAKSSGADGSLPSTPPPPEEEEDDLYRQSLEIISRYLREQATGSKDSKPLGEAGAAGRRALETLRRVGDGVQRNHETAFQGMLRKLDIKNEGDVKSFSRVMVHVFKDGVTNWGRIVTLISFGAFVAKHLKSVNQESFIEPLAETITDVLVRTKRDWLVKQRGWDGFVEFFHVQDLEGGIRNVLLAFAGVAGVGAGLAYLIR
HA-tagged full-length human Bik (Q13323, form named): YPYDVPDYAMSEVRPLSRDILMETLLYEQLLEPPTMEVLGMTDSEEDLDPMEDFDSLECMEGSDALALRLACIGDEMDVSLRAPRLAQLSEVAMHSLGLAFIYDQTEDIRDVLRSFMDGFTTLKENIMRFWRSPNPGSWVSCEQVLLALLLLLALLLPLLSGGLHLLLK

Columns and labels:
[1] = target: FLAG-tagged human Bcl-xL (full-length) (human) (UniProt Q07817); assay: co-immunoprecipitation from 35S-labelled 293T lysates (IP anti-HA, anti-FLAG, control), fluorography
[2] = target: FLAG-tagged human Bcl-2 (full-length) (human) (UniProt P10415); assay: as above
[3] = target: FLAG-tagged mouse Mcl-1 (full-length) (mouse) (UniProt P97287); assay: as above
[4] = target: FLAG-tagged human Bcl-xL (full-length) (human) (UniProt Q07817); assay: co-immunoprecipitation from 35S-labelled 293T cell lysates (FIG. 3C)
[5] = target: FLAG-tagged human Bcl-xL (full-length) (human) (UniProt Q07817); assay: co-immunoprecipitation from 293T cells
[6] = target: FLAG-tagged human Bcl-2 (full-length) (human) (UniProt P10415); assay: co-immunoprecipitation from 293T cells
[7] = target: FLAG-tagged mouse Mcl-1 (full-length) (mouse) (UniProt P97287); assay: co-immunoprecipitation from 293T cells
[8] = target: FLAG-tagged human Bcl-xL (full-length) (human) (UniProt Q07817); assay: co-immunoprecipitation from 35S-labelled 293T cell lysates
[9] = target: FLAG-tagged human Bcl-2 (full-length) (human) (UniProt P10415); assay: as above
[10] = target: FLAG-tagged mouse Mcl-1 (full-length) (mouse) (UniProt P97287); assay: as above

Measured: binding

HA-tagged full-length human Bik (from UniProt Q13323 1-160)
binds: all assays above
